Assay results taken from article PMC10952133, “Phytocystatin 6 is a context‐dependent, tight‐binding inhibitor of Arabidopsis thaliana legumain isoform β” (The Plant Journal, 2023).
Results are given in words; binding and its absence hold for the method and conditions named. Binding seen in cells or lysates may run through a third protein. These calls come from enrichment with a bait or labelling near it, and not all partners need be listed. For some assays here: A no says only that the protein was not detected with the bait. One block for each molecule: values may come before it.

The chains behind the UniProt entries cited, without tags or fusion partners. Where a name states a change or a piece, a line headed by the entry shows the natural chain unless it says otherwise.
UniProt Q8VYS0: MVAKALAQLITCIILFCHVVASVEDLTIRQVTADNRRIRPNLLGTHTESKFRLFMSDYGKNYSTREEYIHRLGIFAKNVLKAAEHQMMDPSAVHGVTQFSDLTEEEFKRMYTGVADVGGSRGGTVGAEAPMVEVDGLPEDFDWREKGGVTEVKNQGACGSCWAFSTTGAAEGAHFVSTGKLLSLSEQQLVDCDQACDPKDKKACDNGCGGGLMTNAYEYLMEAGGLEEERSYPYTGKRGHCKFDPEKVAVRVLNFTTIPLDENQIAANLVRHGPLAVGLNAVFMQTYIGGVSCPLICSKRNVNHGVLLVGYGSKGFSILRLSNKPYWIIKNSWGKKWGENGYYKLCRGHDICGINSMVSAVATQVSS

Key:
[1] = molecular target: T1, N-terminal domain of AtCYT6 (AtCYT6-NTD, A35-D127) (Arabidopsis thaliana) (UniProt Q8H0X6); test: affinity purification with mass spectrometry; CoIP with recombinant bait: anti-AtCYT6-NTD or anti-AtCYT6-CTD antibodies on protein G Sepharose loaded with recombinant AtCYT6-NTD or AtCYT6-CTD (bait 3), seed extract in 100 mM citric acid pH 5.5, 250 mM NaCl, 1 h at 4°C; label-free quantification against empty beads; only the target purified
T1 sequence: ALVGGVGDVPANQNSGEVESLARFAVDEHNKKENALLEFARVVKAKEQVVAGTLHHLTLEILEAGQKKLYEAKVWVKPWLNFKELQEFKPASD

[2] = molecular target: T2, endogenous Arabidopsis thaliana phytocystatin 6 (AtCYT6) (Arabidopsis thaliana (endogenous in leaves and seeds)) (UniProt Q8H0X6); test: affinity purification with mass spectrometry; CoIP of endogenous AtCYT6: polyclonal anti-AtCYT6-NTD or anti-AtCYT6-CTD antibodies cross-linked to protein G Sepharose (bait 2), seed extract in 100 mM citric acid pH 5.5, 250 mM NaCl, 1 h at 4°C; label-free quantification against empty beads
T2 sequence: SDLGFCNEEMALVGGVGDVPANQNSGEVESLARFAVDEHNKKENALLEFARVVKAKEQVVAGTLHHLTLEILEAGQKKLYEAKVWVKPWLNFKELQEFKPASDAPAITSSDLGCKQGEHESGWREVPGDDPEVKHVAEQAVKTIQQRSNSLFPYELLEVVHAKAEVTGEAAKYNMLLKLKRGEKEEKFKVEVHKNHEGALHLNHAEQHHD

[3] = molecular target: T3, proAtLEGβ-C211A dead mutant (inactive proenzyme of AtLEGβ) (Arabidopsis thaliana) (UniProt Q39044); test: affinity purification with mass spectrometry; pull-down: 2 mg VPE0 leaf lysate (100 mM MES pH 6.0, 100 mM NaCl, 250 mM sucrose, 1% Triton X-100) with His6-AtLEGβ (pre-inhibited with MMTS), His6-proAtLEGβ-C211A or lysate alone and Dynabeads for His-tag isolation, 1 h at room temperature; triplex dimethyl labelling; only the target purified
T3 sequence: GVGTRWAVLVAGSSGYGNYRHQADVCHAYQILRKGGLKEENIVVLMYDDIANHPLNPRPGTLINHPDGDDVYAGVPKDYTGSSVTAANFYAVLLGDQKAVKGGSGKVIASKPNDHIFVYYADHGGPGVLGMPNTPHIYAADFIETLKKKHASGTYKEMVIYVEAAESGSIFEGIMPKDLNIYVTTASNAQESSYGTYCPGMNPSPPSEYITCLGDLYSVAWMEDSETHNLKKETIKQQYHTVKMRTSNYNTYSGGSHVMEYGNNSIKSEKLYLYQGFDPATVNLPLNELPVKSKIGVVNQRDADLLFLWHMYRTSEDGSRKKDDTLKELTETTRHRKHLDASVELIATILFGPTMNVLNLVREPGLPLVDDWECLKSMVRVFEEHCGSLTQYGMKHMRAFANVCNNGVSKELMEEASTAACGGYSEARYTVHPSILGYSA

binding [1]: binds
binding [2]: binds
Molecule: RD19D (papain-like cysteine protease), endogenous in A. thaliana seeds (from UniProt Q8VYS0) (enzyme)

binding [3]: no binding
B1: endogenous Arabidopsis thaliana phytocystatin 6 (AtCYT6) (protein, UniProt Q8H0X6 25-234)
chain: T2 sequence

binding [1]: binds
binding [2]: binds
B2: SAG12 (papain-like cysteine protease), endogenous in A. thaliana seeds (enzyme, UniProt Q9FJ47 26-346)
chain: RPLDNELIMQKRHIEWMTKHGRVYADVKEENNRYVVFKNNVERIEHLNSIPAGRTFKLAVNQFADLTNDEFRSMYTGFKGVSALSSQSQTKMSPFRYQNVSSGALPVSVDWRKKGAVTPIKNQGSCGCCWAFSAVAAIEGATQIKKGKLISLSEQQLVDCDTNDFGCEGGLMDTAFEHIKATGGLTTESNYPYKGEDATCNSKKTNPKATSITGYEDVPVNDEQALMKAVAHQPVSVGIEGGGFDFQFYSSGVFTGECTTYLDHAVTAIGYGESTNGSKYWIIKNSWGTKWGESGYMRIQKDVKDKQGLCGLAMKASYPTI
